Assay results from patent US20100210708A1, “COMPOUND PROFILING METHOD” (CYTOPATHFINDER, INC., priority 2007, published 2010).
At least one structure is not confirmed: it was looked up by name or label, or the drawing left a doubt.

Test system: SHSY5Y cell
Assay: Exposure of SHSY5Y neuroblastoma cells to stimulants: marker enzyme expression and extension of neuron projection
Assay type: cell-based
Conditions: a neuroblastoma from human
From the text: The functions of (1) and (2) are different, but share the same properties in terms of extension of neuron projection. Therefore, cellular components necessary for these two intracellular alteration were specified experimentally by means of RNA interference method. As such, it was obtained that the component collection (3) necessary for the alteration from SHSY5Y to (1) are {JAK1, JAK3, ROR, and RET}. On the other hand, the component collection (4) necessary for the alteration from SHSY5Y cells to (2), are {NTRK1, EPHB2, INSR, RDGFRA, ROR and RET}. When comparing and calculation of intersection is done for (3) and (4), the intersection (5) was obtained to read {ROR and RET}. Next, the collection (6) {JAK1 and JAK3} by subtraction of (3)-(5) and the collection (5) were analyzed in terms of an intermolecular interaction, and the existence of a pathway of a molecular signals from (6) to (5) (FIG. 3A) was determined. Furthermore, the collection (7) which was obtained by the subtraction of (4)-(5), and the collection (5) were analyzed in terms of an intermolecular interaction, and the existence of a pathway of molecular signals from (7) to (5) (FIG. 3B) was further determined. The common components and pathway relating to the projection extension by retinoic acid (RA) and Nerve Growth Factor (NGF) are shown in FIG. 4.

CC1=C(/C=C/C(C)=C/C=C/C(C)=C/C(=O)O)C(C)(C)CCC1 [Retinoic acid]
expression of choline acetyl transferase: raise expression of choline acetyl transferase | extension of neuron projection: cause extension of neuron projection | neuron cell type formed: forms cholinergic neuron cells
